# Measurements reported in patent KR20180095349A.
# Sequences of proteins named here, by UniProt entry; tags and fusion partners are left off. A change or cut given only in a name is not applied to a line headed by its entry. A line that says so, or that is headed by a name, gives the form on record, which may keep a tag or linker.
# VEGF 항원 단백질 (VEGF-His) (P15692, form named): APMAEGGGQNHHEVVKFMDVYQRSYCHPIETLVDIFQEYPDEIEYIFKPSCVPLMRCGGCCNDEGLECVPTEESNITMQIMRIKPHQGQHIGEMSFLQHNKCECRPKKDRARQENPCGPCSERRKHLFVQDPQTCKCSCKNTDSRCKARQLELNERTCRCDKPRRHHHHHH
# No constants are given. Whether binding was seen depends on the method and setting. Some binding calls cover weakened binding; strength is not graded here.
# Molecular target: VEGF 항원 단백질 (VEGF-His) (UniProt P15692)
# Assay: phage ELISA screening followed by fingerprinting and sequencing
row,binding,Binder
1,binds,"항-VEGF 단일 클론 파지 항체 4C4 (scFv-파지) (scFv, V domains shown) VH: QVQLVQSGAEVKKPGSSVKVSCKASGGTFSSSAFSWVRQAPGHGLEWMGRIIPMFDMTDYAQRFQGRLTIIADESSSTAYMELSSLRSEDTAVYYCARYKSGSYGMDVWGQGTTVTVSS VL: NFMLTQPASVSGSPGQSITISCTGSSSDVGGYNYVSWYQQHPGKAPQLIIYDVTKRPSGVSNRFSGSKSGNSASLTISGLQAEDEADYYCSSYSSSTFYVFGTGTKVTVL"
2,binds,"항-VEGF 단일 클론 파지 항체 7D2 (scFv-파지) (scFv, V domains shown) VH: QMQLVQSGGGLVQPGGSLRLSCAASGFTFSSFEMNWVRQAPGKGLEWLSYISNSGSTIYYADSVKGRFTISRDNAKNSLYLQMNSLRAEDTAVYYCARDSRYYGIHGMDVWGQGTTITVSS VL: DIQMTQSPSSLSASVGDRVTITCRASQTISTYLNWYQQKPGKAPKLLIYAASSLQSGVPSRFSGSGSGTDFTLTISSLQPEDFATYYCQQSSSTPRTFGQGTRLEIK"
3,binds,"항-VEGF 단일 클론 파지 항체 3H1 (scFv-파지) (scFv, V domains shown) VH: QVQLVESGGGLVKPGGSLRLSCAASGFIFSRYGMNWVRQAPGKGLEWVSSISGSSNYRYYADSVKGRFTISRDNAKNSLYLQMNSLRAEDTAVYYCARDASWGLIQGLDSWGQGTLVTVSS VL: DIQMTQSPSSLSASVGDRVTITCRASQSISSYLNWYQQEPGKAPKLLIYDASSLQSGVPSRFSGGGSGTDFTLTISSLQPEDFAAYYCQQSYSTPYTFGQGTKVDIK"
